Reference: PubChem BioAssay AID1224828 (NIAID, 2016)
The deposit covers about 17,000 reagents; this is an unselected part. 762 of all reagents (4.5%) were called active. 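Active calls include both raised and lowered p65 entry, mostly lowered; wells with fewer than 50 cells lack a z-score.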 Raw values vary from plate to plate and are shown uncorrected. The numbers tell different reagents against one gene apart.

Purpose: 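Knock-downs that increase or decrease LPS-induced p65 nuclear translocation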 (primary screen)
System: mouse RAW264.7 G9 macrophage reporter cells (GFP-p65, Tnf promoter-mCherry)
Reagents: siRNA pool against mouse genes, 100 nM
Duration: 2 days siRNA transfection, then 40 min LPS before fixation
Challenge: LPS (Salmonella minnesota R595) at 10 ng/ml
Measurement: 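Microscopy ratio of nuclear to perinuclear-ring GFP-p65 signal, scaled to the plate median; gene score is the average of two replicate robust z-scores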
Direction: p65 translocation robust z-score: higher = more nuclear NF-kappaB p65 after LPS than the plate median; nuclear/cytoplasmic p65 ratio: higher = more nuclear NF-kappaB p65
Rule for the call: 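Called active when z exceeds 3.3 or falls under -1.56 (median of Tlr4 controls), giving activity score of at least 50; no calls for control wells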
Calls: active = hit (p65 shift raised or lowered); inactive = no clear change

gene	reagent	p65 translocation robust z-score	nuclear/cytoplasmic p65 ratio, rep 1	nuclear/cytoplasmic p65 ratio, rep 2	low cell count flag	outcome
Mrgprg	1	-0.63	1.68	1.5	enough cells to score	inactive
Fbxo32	1	-1.55	1.38	1.16	enough cells to score	inactive
Lama2	1	1.07	1.67	1.47	enough cells to score	inactive
Fitm2	1	0.01	1.59	1.53	enough cells to score	inactive
Il20	1		1.3	1.22	fewer than 50 cells per well; well left out of scoring	inactive
Plekhm1	1	0.33	1.4	1.27	enough cells to score	inactive
Uroc1	1	-0.56	1.52	1.72	enough cells to score	inactive
Sfrp4	1	-0.77	1.35	1.53	enough cells to score	inactive
Cldn12	1	0.23	1.38	1.41	enough cells to score	inactive
Btn2a2	1	-0.61	1.29	1.5	enough cells to score	inactive
Simc1	1		1.29	1.1	fewer than 50 cells per well; well left out of scoring	inactive
Cxcr2	1	-0.19	1.49	1.55	enough cells to score	inactive
Acad12	1	-0.38	1.37	1.5	enough cells to score	inactive
Snx14	1	0.78	1.42	1.32	enough cells to score	inactive
Dner	1	0.3	1.41	1.49	enough cells to score	inactive
Axin2	1	-0.83	1.48	1.5	enough cells to score	inactive
Ermn	1	0.32	1.36	1.57	enough cells to score	inactive
Tyr	1	0.28	1.46	1.63	enough cells to score	inactive
Them6	1		1.41	1.34	fewer than 50 cells per well; well left out of scoring	inactive
Fbxl19	1	0.27	1.46	1.57	enough cells to score	inactive
Cct8l1	1	1.49	1.87	1.76	enough cells to score	inactive
Slc22a20	1	2.89	2.17	1.88	enough cells to score	inactive
Rraga	1	0.57	1.61	1.56	enough cells to score	inactive
Kmt2b	1	0.29	1.59	1.72	enough cells to score	inactive
Or8k3	1	1.47	1.93	1.75	enough cells to score	inactive
Tm4sf4	1	-0.39	1.49	1.44	enough cells to score	inactive
Cachd1	1	0.85	1.77	1.91	enough cells to score	inactive
Or2n1b	1	-1.42	1.48	1.16	enough cells to score	inactive
Slc1a2	1	-0.04	1.32	1.25	enough cells to score	inactive
Slc5a8	1	1.98	1.55	1.58	enough cells to score	inactive
Or2t47	1	-3.04	1.13	1.04	enough cells to score	active
Svep1	1	-0.63	1.27	1.17	enough cells to score	inactive
Hid1	1	-0.74	1.35	1.4	enough cells to score	inactive
Taf7	1	-0.64	1.45	1.41	enough cells to score	inactive
Gng2	1	1.3	1.78	1.79	enough cells to score	inactive
Hand2	1	0.13	1.28	1.56	enough cells to score	inactive
Camk2b	1	0.77	1.88	1.43	enough cells to score	inactive
Tprg1l	1	-0.16	1.47	1.3	enough cells to score	inactive
Slc25a37	1	-0.41	1.71	1.54	enough cells to score	inactive
Or4x11	1	-1.11	1.42	1.3	enough cells to score	inactive
Mus81	1	0.81	1.89	1.73	enough cells to score	inactive
Ppy	1		1.2	1.27	fewer than 50 cells per well; well left out of scoring	inactive
Ankra2	1	1.5	1.82	1.93	enough cells to score	inactive
Dab2	1	-0.6	1.4	1.28	enough cells to score	inactive
Dab2	2	-0.2	1.51	1.67	enough cells to score	inactive
Krtap6-5	1	0.81	1.66	1.54	enough cells to score	inactive
Vps13c	1	1.7	1.85	1.76	enough cells to score	inactive
1700129L04Rik (retired record)	1	0.03	1.58	1.42	enough cells to score	inactive
Tsga8	1		1.18	1.23	fewer than 50 cells per well; well left out of scoring	inactive
Slc25a11	1	0.39	1.38	1.37	enough cells to score	inactive
Smox	1		0	1.51	fewer than 50 cells per well; well left out of scoring	inactive
Rcan2	1		1.3	1.2	fewer than 50 cells per well; well left out of scoring	inactive
Tram2	1	1.83	1.47	1.39	enough cells to score	inactive
Dennd6a	1	0.49	1.59	1.43	enough cells to score	inactive
Zfp40	1	0.05	1.32	1.34	enough cells to score	inactive
Crem	1	-0.6	1.53	1.64	enough cells to score	inactive
Efcab14	1	-0.07	1.66	1.55	enough cells to score	inactive
AI182371	1	-0.22	1.67	1.55	enough cells to score	inactive
Ppp1r3f	1	-0.66	1.58	1.14	enough cells to score	inactive

Looked up above.
Under “outcome”, Fitm2 has inactive
Tyr, nuclear/cytoplasmic p65 ratio, rep 1 → 1.46
Ankra2, low cell count flag = enough cells to score
Value of Rcan2 in “low cell count flag”: fewer than 50 cells per well; well left out of scoring
Result of Cct8l1 under “low cell count flag”: enough cells to score
